# Results as given in the supplement of paper PMC8728848.
# This is one part of the list.
# Columns and labels:
# Assay in all cases: glycan array binding signal (z-score within array); higher = stronger binding
# Details in all cases: glycan notation: IUPAC condensed, linker removed; mutation: H213R,G256S
# [1] = biological target: GlcNAc(b1-4)[GlcNAc(b1-6)]GalNAc
# Procedure, shortened: (§1)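 Negative Z-scores can be read as non-binding. The Z-score is calculated within each array and then averaged across arrays of one protein sequence at different concentrations or buffers and across linkers. Arrays, 3228 in all, were curated from the Consortium for Functional Glycomics database and kept only where the protein sequence was available.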
# [2] = biological target: GlcNAc(b1-6)Gal(b1-4)GlcNAc
# Procedure, shortened: as §1
# [3] = biological target: GlcNAc(b1-6)GalNAc
# Procedure, shortened: as §1
# [4] = biological target: Kdn(a2-3)Gal(b1-3)GlcNAc
# Procedure, shortened: as §1
# [5] = biological target: Kdn(a2-3)Gal(b1-4)GlcNAc
# Procedure, shortened: as §1
# [6] = biological target: Man(a1-2)Man(a1-2)Man(a1-3)Man
# Procedure, shortened: as §1
# [7] = biological target: Man(a1-2)Man(a1-2)Man(a1-6)[Man(a1-3)]Man
# Procedure, shortened: as §1
# [8] = biological target: Man(a1-2)Man(a1-3)Man
# Procedure, shortened: as §1
# [9] = biological target: Man(a1-2)Man(a1-3)[Man(a1-2)Man(a1-6)]Man
# Procedure, shortened: as §1
# [10] = biological target: Man(a1-2)Man(a1-3)[Man(a1-2)Man(a1-6)]Man(a1-6)[Man(a1-2)Man(a1-2)Man(a1-3)]Man(b1-4)GlcNAc(b1-4)GlcNAc
# Procedure, shortened: as §1
# [11] = biological target: Man(a1-2)Man(a1-3)[Man(a1-2)Man(a1-6)]Man(a1-6)[Man(a1-3)[Man(a1-6)]Man(a1-6)]Man(b1-4)GlcNAc(b1-4)GlcNAc
# Procedure, shortened: as §1
# [12] = biological target: Man(a1-2)Man(a1-3)[Man(a1-6)]Man(a1-6)[Man(a1-2)Man(a1-3)]Man(b1-4)GlcNAc(b1-4)GlcNAc
# Procedure, shortened: as §1
# [13] = biological target: Man(a1-2)Man(a1-6)[Man(a1-3)]Man(a1-6)[Man(a1-2)Man(a1-2)Man(a1-3)]Man(b1-4)GlcNAc(b1-4)GlcNAc
# Procedure, shortened: as §1
# [14] = biological target: Man(a1-3)[Man(a1-6)]Man
# Procedure, shortened: as §1
# [15] = biological target: Man(a1-3)[Man(a1-6)]Man(a1-6)[Man(a1-3)]Man(b1-4)GlcNAc(b1-4)GlcNAc
# Procedure, shortened: as §1
# [16] = biological target: Man(a1-3)[Man(a1-6)]Man(b1-4)GlcNAc(b1-4)GlcNAc
# Procedure, shortened: as §1
# [17] = biological target: Man(b1-4)GlcNAc
# Procedure, shortened: as §1
# [18] = biological target: Neu5Ac(a2-3)Gal
# Procedure, shortened: as §1
# [19] = biological target: Neu5Ac(a2-3)Gal(b1-3)GalNAc
# Procedure, shortened: as §1
# [20] = biological target: Neu5Ac(a2-3)Gal(b1-3)GalNAc(b1-3)Gal(a1-4)Gal(b1-4)Glc
# Procedure, shortened: as §1
# [21] = biological target: Neu5Ac(a2-3)Gal(b1-3)GalNAc(b1-3)Gal(b1-4)GlcNAc
# Procedure, shortened: as §1
# [22] = biological target: Neu5Ac(a2-3)Gal(b1-3)GalNAc(b1-4)[Neu5Ac(a2-3)]Gal(b1-4)Glc
# Procedure, shortened: as §1
# [23] = biological target: Neu5Ac(a2-3)Gal(b1-3)GalNAc6S
# Procedure, shortened: as §1
# [24] = biological target: Neu5Ac(a2-3)Gal(b1-3)GlcNAc
# Procedure, shortened: as §1
# [25] = biological target: Neu5Ac(a2-3)Gal(b1-3)GlcNAc(b1-3)Gal(b1-3)GlcNAc
# Procedure, shortened: as §1
# [26] = biological target: Neu5Ac(a2-3)Gal(b1-3)GlcNAc6S
# Procedure, shortened: as §1
# [27] = biological target: Neu5Ac(a2-3)Gal(b1-3)[Fuc(a1-4)]GlcNAc
# Procedure, shortened: as §1
# [28] = biological target: Neu5Ac(a2-3)Gal(b1-3)[Fuc(a1-4)]GlcNAc(b1-3)Gal(b1-4)[Fuc(a1-3)]GlcNAc
# Procedure, shortened: as §1
# [29] = biological target: Neu5Ac(a2-3)Gal(b1-3)[Neu5Ac(a2-3)Gal(b1-4)]GlcNAc
# Procedure, shortened: as §1
# [30] = biological target: Neu5Ac(a2-3)Gal(b1-3)[Neu5Ac(a2-6)]GalNAc
# Procedure, shortened: as §1
# [31] = biological target: Neu5Ac(a2-3)Gal(b1-4)Glc
# Procedure, shortened: as §1
# [32] = biological target: Neu5Ac(a2-3)Gal(b1-4)GlcNAc
# Procedure, shortened: as §1
# [33] = biological target: Neu5Ac(a2-3)Gal(b1-4)GlcNAc(b1-3)Gal(b1-3)GlcNAc
# Procedure, shortened: as §1
# [34] = biological target: Neu5Ac(a2-3)Gal(b1-4)GlcNAc(b1-3)Gal(b1-4)GlcNAc
# Procedure, shortened: as §1
# [35] = biological target: Neu5Ac(a2-3)Gal(b1-4)GlcNAc(b1-3)Gal(b1-4)GlcNAc(b1-3)Gal(b1-4)GlcNAc
# Procedure, shortened: as §1
# [36] = biological target: Neu5Ac(a2-3)Gal(b1-4)GlcNAc(b1-3)Gal(b1-4)[Fuc(a1-3)]GlcNAc
# Procedure, shortened: as §1
# [37] = biological target: Neu5Ac(a2-3)Gal(b1-4)GlcNAc(b1-6)[Gal(b1-3)]GalNAc
# Procedure, shortened: as §1
# [38] = biological target: Neu5Ac(a2-3)Gal(b1-4)GlcNAc6S
# Procedure, shortened: as §1
# [39] = biological target: Neu5Ac(a2-3)Gal(b1-4)[Fuc(a1-3)]GlcNAc
# Procedure, shortened: as §1
# [40] = biological target: Neu5Ac(a2-3)Gal(b1-4)[Fuc(a1-3)]GlcNAc(b1-3)Gal
# Procedure, shortened: as §1
# [41] = biological target: Neu5Ac(a2-3)Gal(b1-4)[Fuc(a1-3)]GlcNAc(b1-3)Gal(b1-4)GlcNAc
# Procedure, shortened: as §1
# [42] = biological target: Neu5Ac(a2-3)Gal(b1-4)[Fuc(a1-3)]GlcNAc(b1-3)Gal(b1-4)[Fuc(a1-3)]GlcNAc(b1-3)Gal(b1-4)[Fuc(a1-3)]GlcNAc
# Procedure, shortened: as §1
# [43] = biological target: Neu5Ac(a2-3)Gal(b1-4)[Fuc(a1-3)]GlcNAc6S
# Procedure, shortened: as §1
# [44] = biological target: Neu5Ac(a2-3)Gal6S(b1-4)GlcNAc
# Procedure, shortened: as §1
# [45] = biological target: Neu5Ac(a2-3)Gal6S(b1-4)[Fuc(a1-3)]GlcNAc
# Procedure, shortened: as §1
binder,measurement,setting,value
CD23 (Homo sapiens) (protein) MELQVSSGFVCNTCPEKWINFQRKCYYFGKGTKQWVHARYACDDMEGQLVSIHSPEEQDFLTKRASHTGSWIGLRNLDLKGEFIWVDGSHVDYSNWAPGEPTSRSQSEDCVMMRGSGRWNDAFCDRKLGAWVCDRLATCTPPASEGSAESMGPDSRPDPDGRLPTPSAPLHS,glycan array binding signal (z-score),[1],0.011
same,glycan array binding signal (z-score),[2],-0.195
same,glycan array binding signal (z-score),[3],-0.3
same,glycan array binding signal (z-score),[4],-0.218
same,glycan array binding signal (z-score),[5],-0.386
same,glycan array binding signal (z-score),[6],-0.197
same,glycan array binding signal (z-score),[7],-0.249
same,glycan array binding signal (z-score),[8],-0.188
same,glycan array binding signal (z-score),[9],0.012
same,glycan array binding signal (z-score),[10],0.376
same,glycan array binding signal (z-score),[11],0.286
same,glycan array binding signal (z-score),[12],0.052
same,glycan array binding signal (z-score),[13],-0.209
same,glycan array binding signal (z-score),[14],-0.181
same,glycan array binding signal (z-score),[15],-0.063
same,glycan array binding signal (z-score),[16],-0.791
same,glycan array binding signal (z-score),[17],-0.401
same,glycan array binding signal (z-score),[18],0.147
same,glycan array binding signal (z-score),[19],-0.283
same,glycan array binding signal (z-score),[20],-0.401
same,glycan array binding signal (z-score),[21],-0.047
same,glycan array binding signal (z-score),[22],-0.497
same,glycan array binding signal (z-score),[23],-0.138
same,glycan array binding signal (z-score),[24],-0.322
same,glycan array binding signal (z-score),[25],0.196
same,glycan array binding signal (z-score),[26],-0.362
same,glycan array binding signal (z-score),[27],-0.068
same,glycan array binding signal (z-score),[28],-0.341
same,glycan array binding signal (z-score),[29],-0.301
same,glycan array binding signal (z-score),[30],-0.178
same,glycan array binding signal (z-score),[31],-0.478
same,glycan array binding signal (z-score),[32],-0.511
same,glycan array binding signal (z-score),[33],0.097
same,glycan array binding signal (z-score),[34],-0.234
same,glycan array binding signal (z-score),[35],-0.45
same,glycan array binding signal (z-score),[36],-0.404
same,glycan array binding signal (z-score),[37],-0.122
same,glycan array binding signal (z-score),[38],0.044
same,glycan array binding signal (z-score),[39],0.174
same,glycan array binding signal (z-score),[40],-0.209
same,glycan array binding signal (z-score),[41],0.869
same,glycan array binding signal (z-score),[42],0.004
same,glycan array binding signal (z-score),[43],-0.281
same,glycan array binding signal (z-score),[44],0.094
same,glycan array binding signal (z-score),[45],-0.309

# Reformatted as tab-separated lines: entries from further up
binder	measurement	setting	value
CD23 (Homo sapiens) (protein) MELQVSSGFVCNTCPEKWINFQRKCYYFGKGTKQWVHARYACDDMEGQLVSIHSPEEQDFLTKRASHTGSWIGLRNLDLKGEFIWVDGSHVDYSNWAPGEPTSRSQSEDCVMMRGSGRWNDAFCDRKLGAWVCDRLATCTPPASEGSAESMGPDSRPDPDGRLPTPSAPLHS	glycan array binding signal (z-score)	[12]	0.052
same	glycan array binding signal (z-score)	[13]	-0.209
same	glycan array binding signal (z-score)	[31]	-0.478
same	glycan array binding signal (z-score)	[32]	-0.511
